Values are relative to the signal before dosing, not to a vehicle control; the signal also falls without drug.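 Fibroblast labels denote human fibroblasts, mainly primary ones from uterus (C12385, HUF), lung (H6013), bone (Hs27A), adrenal (HADF) and skin (WS1), plus mammary HMF and breast cancer-associated Hs343T. Cancer cells are basal-like or mesenchymal-like triple-negative breast cancer lines. A hit is a response shift exceeding 3x replicate standard deviation. The tissue of the other fibroblasts is not given here.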
System: MDAMB436
Assay: relative JC-1 red fluorescence (viability) vs pre-drug, coculture with fibroblast (fraction); higher = more viable cancer cells
Protocol: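 JC-1 labelled TNBC cells cocultured 1:1 (1,500 cells each) with CellTrace Violet stained primary or stromal fibroblasts in 384-well plates in FluoroBrite medium, treated with one of 42 anticancer drugs at 0.1, 1, 10 or 100 uM. JC-1 red fluorescence (mitochondrial integrity in cancer cells only) was read by plate reader every 8 h for 72 h. Values are normalised to each well's pre-drug value. The stock of one drug was tenfold lower, so its dose labels may be too high.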

CC[C@]1(O)C[C@@H]2CN(CCc3c([nH]c4ccccc34)[C@@](C(=O)OC)(c3cc4c(cc3OC)N(C)[C@H]3[C@@](O)(C(=O)OC)[C@H](OC(C)=O)[C@]5(CC)C=CCN6CC[C@]43[C@@H]65)C2)C1 [Vinblastine]
relative JC-1 red fluorescence
Settings	8 h	16 h	24 h	32 h	40 h	48 h	56 h	64 h	72 h
10 µM, coculture fibroblast: C12385	0.73	0.722	0.705	0.65	0.627	0.607	0.566	0.532	0.517
10 µM, coculture fibroblast: H6013	0.768	0.782	0.799	0.836	0.836	0.81	0.845	0.83	0.795
10 µM, coculture fibroblast: H6019	0.771	0.755	0.7503	0.7223	0.726	0.712	0.702	0.687	0.684
10 µM, coculture fibroblast: H6076	0.778	0.743	0.74	0.667	0.638	0.608	0.609	0.594	0.576
10 µM, coculture fibroblast: H6231	0.768	0.684	0.683	0.587	0.537	0.503	0.469	0.435	0.4171
10 µM, coculture fibroblast: HADF	0.783	0.796	0.8	0.799	0.786	0.82	0.755	0.729	0.672
10 µM, coculture fibroblast: HCFa	0.795	0.797	0.777	0.764	0.737	0.741	0.671	0.655	0.605
10 µM, coculture fibroblast: HCPF	0.769	0.747	0.7443	0.657	0.608	0.569	0.527	0.501	0.482
10 µM, coculture fibroblast: HHSteC	0.796	0.826	0.836	0.824	0.824	0.845	0.78	0.752	0.694
10 µM, coculture fibroblast: HMF	0.728	0.712	0.73	0.67	0.637	0.584	0.57	0.5318	0.51368
10 µM, coculture fibroblast: HPFa	0.8116	0.776	0.7811	0.761	0.7665	0.779	0.7096	0.701	0.64
10 µM, coculture fibroblast: HUF	0.818	0.7864	0.771	0.719	0.67	0.627	0.586	0.561	0.549
10 µM, coculture fibroblast: Hs5	0.683	0.666	0.6797	0.61	0.59	0.541	0.533	0.496	0.485
10 µM, coculture fibroblast: Hs27A	0.778	0.737	0.734	0.721	0.703	0.764	0.663	0.6521	0.5783
10 µM, coculture fibroblast: Hs343T	0.805	0.765	0.745	0.683	0.634	0.568	0.528	0.502	0.484
10 µM, coculture fibroblast: WS1	0.7457	0.723	0.705	0.646	0.621	0.591	0.565	0.519	0.505
100 µM, coculture fibroblast: C12385	0.74	0.701	0.7036	0.592	0.457	0.376	0.313	0.26	0.238
100 µM, coculture fibroblast: H6013	0.799	0.787	0.723	0.604	0.452	0.423	0.339	0.306	0.256
100 µM, coculture fibroblast: H6019	0.813	0.805	0.757	0.644	0.546	0.483	0.421	0.371	0.339
100 µM, coculture fibroblast: H6076	0.873	0.831	0.793	0.659	0.5063	0.371	0.2625	0.208	0.169
100 µM, coculture fibroblast: H6231	0.865	0.7777	0.765	0.712	0.678	0.489	0.299	0.197	0.156
100 µM, coculture fibroblast: HADF	0.859	0.735	0.72	0.633	0.605	0.565	0.446	0.42	0.358
100 µM, coculture fibroblast: HCFa	0.815	0.834	0.829	0.775	0.599	0.52	0.377	0.345	0.271
100 µM, coculture fibroblast: HCPF	0.9088	0.866	0.833	0.717	0.57	0.432	0.287	0.21	0.164
100 µM, coculture fibroblast: HHSteC	0.748	0.779	0.765	0.678	0.527	0.486	0.372	0.338	0.273
100 µM, coculture fibroblast: HMF	0.92	0.912	0.904	0.811	0.646	0.466	0.301	0.226	0.182
100 µM, coculture fibroblast: HPFa	0.7529	0.769	0.769	0.68	0.535	0.476	0.371	0.346	0.283
100 µM, coculture fibroblast: HUF	0.833	0.7718	0.706	0.541	0.383	0.281	0.222	0.188	0.17
100 µM, coculture fibroblast: Hs5	0.887	0.848	0.819	0.727	0.623	0.481	0.388	0.288	0.227
100 µM, coculture fibroblast: Hs27A	0.756	0.711	0.64	0.536	0.408	0.416	0.281	0.258	0.186
100 µM, coculture fibroblast: Hs343T	0.856	0.85	0.847	0.78	0.699	0.584	0.448	0.36	0.305
100 µM, coculture fibroblast: WS1	0.7607	0.7668	0.732	0.571	0.465	0.391	0.343	0.286	0.259

Reference: the supplement of paper PMC6078165
